The campaign covered roughly 320,000 compounds. About 22,000 (6.9%) were called active. The shares of active, inactive and inconclusive entries below differ from those in the screen. Calls follow the shape of the dose curve; as a rule, active = well fitted inhibition curve with a large enough effect; inconclusive = small, poorly fitted or top-dose-only effect, or another doubt; inactive = no such curve, though single readings can be large or run the other way. Where the call is inconclusive, the potency comes from a doubtful curve fit.
experiment: Primary qHTS for delayed death inhibitors of the malarial parasite plastid, 96 hour incubation; details: P. falciparum luciferase reporter growth; series mostly up to 28.7 µM
In short: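 Compounds incubated with erythrocytes infected by luciferase-expressing P. falciparum (2% hematocrit, 0.05% parasitemia final) for 96 hours, 37 C in 5% CO2. Growth inhibition scored as decreased luciferase luminescence.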
Potency is read from the fitted curve at half-maximal effect.

SMILES	Potency
FC(F)(F)c1nc(NCC2CCCO2)c2nnn(Cc3ccccc3Cl)c2n1 (configuration not stated)	inconclusive: 1.31 µM [inhibitor, partial curve]
Cc1ccc(S(=O)(=O)NCC(=O)OCC(=O)c2cccs2)cc1	active: 13.1 µM
COc1ccc(/C=C2\SC(=S)N(CCCC(=O)NNC(=O)c3ccccc3O)C2=O)cc1	inactive
CCCCOP(=O)(c1ccc(N(C)C)cc1)C(Nc1ccccc1)c1ccccc1 (configuration not stated)	active: 14.7 µM
CCOC(=O)C1(CCCc2ccccc2)CCN(Cc2cnc(C)s2)CC1	inconclusive: 16.5 µM [inhibitor, single point]
N#Cc1c(N2CCSCC2)nsc1-c1ccccc1Cl	inconclusive: 13.1 µM [inhibitor, single point]
CC(C(=O)Nc1ccc(F)c(F)c1F)N(C)CC(=O)Nc1ccccc1Br (configuration not stated)	inactive
CNc1cc(CS(=O)c2ccccc2)nc(-c2ccccc2)n1 (configuration not stated)	inconclusive: 4.15 µM [inhibitor, single point]
C=C(C)c1cccc(C(C)(C)NC(=O)Nc2cc(C)ccc2OC)c1	inconclusive: 14.7 µM [inhibitor, single point]
O=C(Nc1ccc(Cl)c(Cl)c1)c1ccc(Cn2c(=O)[nH]c3ccsc3c2=O)cc1	inconclusive: 18.5 µM [inhibitor, single point]
Cc1cnc(NC(=O)C2CCC(C(C)(C)C)CC2)s1 (configuration not stated)	inconclusive: 10.4 µM [inhibitor, partial curve]
Cc1cccc(C)c1NC(=S)NC(=O)CCc1ccccc1	inconclusive: 18.5 µM [inhibitor, single point]
COc1ccccc1C(=O)NCCC(=O)Nc1ccc(S(=O)(=O)N2CCCC(C)C2)cc1 (configuration not stated)	inconclusive: 8.28 µM [inhibitor, single point]
CCN(CC)C(=O)C1CCC(CNS(=O)(=O)c2cccc3nsnc23)CC1 (configuration not stated)	inconclusive: 18.5 µM [inhibitor, single point]
CC1(C)CC(=O)C(C2C3=C(CC(C)(C)CC3=O)OC3=C2C(=O)CC(C)(C)C3)=C(O)C1	inactive
COc1ccc(NC2c3ccccc3C(=O)N2Cc2ccccc2Cl)cc1OC (configuration not stated)	inconclusive: 11.7 µM [inhibitor, single point]
Cc1ccc(C(=O)Nc2ccc(N3CCOCC3)cc2)cc1	inconclusive: 7.38 µM [activator, partial curve]
Cc1ccc(NC(=O)C2CC(=O)N(c3ccc4c(c3)OCCO4)C2)cc1S(=O)(=O)N(C)C (configuration not stated)	inconclusive: 6.57 µM [inhibitor, partial curve, poor fit]
COc1ccc(N2C(=O)N(Cc3ccc(C)cc3)c3ccccc3S2(=O)=O)cc1	inconclusive: 6.57 µM [inhibitor, partial curve, poor fit]
O=C(CN1CCN(S(=O)(=O)c2ccc(F)c(Cl)c2)CC1)N1CCc2ccccc21	inconclusive: 18.5 µM [inhibitor, single point]
COc1ccc2cc(Br)ccc2c1CC(=O)NC(C)(C)C	inconclusive: 16.5 µM [inhibitor, single point]
COc1ccc(C2C(C#N)=C(N)Oc3c2ccc2cccnc32)cc1OC (configuration not stated)	inconclusive: 13.1 µM [inhibitor, partial curve, poor fit]
COc1ccccc1CNCCc1ccc(F)cc1	inactive

SMILES	Potency
COc1cccc(CC(NC(C)=O)C(=O)NC2CCN(C(=O)Nc3ccc(C)cc3)CC2)c1 (configuration not stated)	inactive
C=CCN1C(=O)C(Cc2ccccc2)SC1=Nc1ccc(C(=O)O)cc1 (configuration not stated)	inconclusive: 5.86 µM [inhibitor, partial curve, poor fit]
COc1ccc(O)c(CN2CCCC(C(=O)c3sccc3C)C2)c1 (configuration not stated)	inconclusive: 18.5 µM [inhibitor, single point]
S=C1SCN(Cc2ccco2)CN1Cc1ccco1	active: 4.65 µM
Cc1cc(C)n2nc(/C(C#N)=C/c3ccccc3)c(C#N)c2n1	inconclusive: 2.62 µM [inhibitor, partial curve]
N#C/C(=C(/O)CCl)c1nc2c(s1)CCc1ccccc1-2	inconclusive: 18.5 µM [inhibitor, single point]
COc1ccc(Nc2ncc3c(n2)CC(c2ccc(OC)cc2)CC3=O)cc1 (configuration not stated)	active: 9.28 µM
COC(=O)Cn1nnc2c(cnn2-c2ccccc2)c1=O	inactive
CC(NC(=O)CN(C)S(=O)(=O)c1cccc2nsnc12)c1ccccc1 (configuration not stated)	inconclusive: 11.7 µM [inhibitor, single point]
COc1ccc(N(C)C(=O)Cc2c(C(=O)O)n(C)c3ccccc23)c(OC)c1	inactive
CCc1ccc(CN(C)C(=O)C2CCC(=O)N(CC3CCCCC3)C2)cc1 (configuration not stated)	active: 13.1 µM
COc1ccc(Nc2ccnc(Nc3ccc(OC)cc3)n2)cc1	inconclusive: 4.15 µM [inhibitor, partial curve, poor fit]
Cc1ccc(S(=O)(=O)NCc2ccccc2)cc1C(=O)NC1CCC(C)CC1 (configuration not stated)	inactive
CCC(=O)OC1(C)C(=O)C2=COC(c3ccc(OC)cc3)=CC2=C(Br)C1=O (configuration not stated)	inactive
Cc1c(C)n2c(SCC(=O)N3CCCCCC3)nnc2[nH]c1=O	inconclusive: 6.57 µM [inhibitor, partial curve]
CCCCn1c(O)c(C(C)=NCc2ccc3c(c2)OCO3)c(=O)[nH]c1=O	inconclusive: 18.5 µM [inhibitor, single point]
CCc1ccc(CN(C)C(=O)C2CCC(=O)N(CCc3ccc(OC)cc3)C2)nc1 (configuration not stated)	inconclusive: 18.5 µM [inhibitor, single point]
CC1(C)CC(=O)C(C=N)=C(O)C1	inconclusive: 18.5 µM [inhibitor, single point]
CCOCc1cnc(C)nc1NCC(=O)c1c(C)[nH]c2cc(C)ccc12	active: 0.294 µM
CCOC(=O)N1CCC(N2Cc3cccc(C(=O)Nc4ccc(S(=O)(=O)N(CC)CC)cc4)c3C2=O)CC1	inconclusive: 13.1 µM [inhibitor, single point]
O=C(Cn1nnc2c(sc3nc4c(c(-c5ccccc5)c32)CCC4)c1=O)c1ccccc1	inactive
CCn1c(=O)c2cc(C(=O)NC(C)C)sc2c2ccccc21	inconclusive: 10.4 µM [inhibitor, partial curve, poor fit]
CCCn1nc(C(=O)NNC(=O)CCCOc2ccc(OC)cc2)c2ccccc2c1=O	inconclusive: 10.4 µM [inhibitor, partial curve]

Five compounds from above, sorted by SMILES length, falling:
SMILES	Potency
CCCCOP(=O)(c1ccc(N(C)C)cc1)C(Nc1ccccc1)c1ccccc1 (configuration not stated)	active: 14.7 µM
CC(NC(=O)CN(C)S(=O)(=O)c1cccc2nsnc12)c1ccccc1 (configuration not stated)	inconclusive: 11.7 µM [inhibitor, single point]
CCn1c(=O)c2cc(C(=O)NC(C)C)sc2c2ccccc21	inconclusive: 10.4 µM [inhibitor, partial curve, poor fit]
COc1ccc2cc(Br)ccc2c1CC(=O)NC(C)(C)C	inconclusive: 16.5 µM [inhibitor, single point]
Cc1cnc(NC(=O)C2CCC(C(C)(C)C)CC2)s1 (configuration not stated)	inconclusive: 10.4 µM [inhibitor, partial curve]

The results go on.

SMILES	Potency
Cc1ccc(N2C(=O)c3ccccc3C2Nc2ccc(S(=O)(=O)N3CCOCC3)cc2)nc1 (configuration not stated)	inactive
COc1ccccc1CNC(=O)CCn1c(=O)[nH]c2ccsc2c1=O	inconclusive: 3.7 µM [inhibitor, full curve]
COCCN(C(=O)c1ccc(COc2ccccc2)o1)c1c(N)n(CC(C)C)c(=O)[nH]c1=O	inconclusive: 18.5 µM [inhibitor, single point]
O=C(NCCCC(=O)N1CCCCC1)c1ccc(Cl)cc1	inactive
Nn1c(SCC(=O)Nc2nccs2)nncc1=O	inconclusive: 9.28 µM [inhibitor, single point]
NS(=O)(=O)c1ccc(NC(=O)Cc2c(F)cccc2Cl)cc1	inconclusive: 11.7 µM [inhibitor, single point]
Cc1sc2nc(CN(C(=O)c3cccs3)C3CCCC3)[nH]c(=O)c2c1C	inconclusive: 8.28 µM [inhibitor, partial curve, poor fit]
c1cc(CNCCc2ccc3c(c2)OCO3)ccn1	active: 11.7 µM
Cc1ccc(C)c(-n2c3nc(=O)[nH]c(=O)c-3cc3cc([N+](=O)[O-])ccc32)c1	inactive
CC1CCN(Cc2nnnn2CCCC(=O)N(C)C(C)c2ccccn2)CC1 (configuration not stated)	inactive
CC(C)NC(=O)C1CCN(C(=O)N(C)C)CC1	inconclusive: 5.86 µM [inhibitor, partial curve]
Cc1cccc(N2CCN(C(=O)CSc3nnnn3C3CC3)CC2)c1C	inconclusive: 18.5 µM [inhibitor, single point]
CC(=O)N1CCN(c2nc(-c3ccco3)c3c(c2C#N)CC(C)(C)SC3)CC1	inconclusive: 9.28 µM [inhibitor, partial curve]
O=C(CN1C(=O)CC(c2ccco2)Sc2ccccc21)Nc1ccccc1F (configuration not stated)	inconclusive: 0.131 µM [inhibitor, full curve, poor fit]
O=C(c1ccc(S(=O)(=O)N2CCC(c3nc4ccccc4[nH]3)CC2)cc1)N1CCOCC1	inconclusive: 20.8 µM [inhibitor, partial curve, poor fit]
Cc1ccc2oc(=O)n(Cc3ccccc3)c2c1	inconclusive: 0.0415 µM [inhibitor, full curve, poor fit]
COc1ccc(CN2CCOCC2)cc1	inconclusive: 2.33 µM [inhibitor, partial curve, poor fit]
COC(=O)[C@@H]1C[C@H]2CC[C@H](O)C[C@H]2N1Cc1ccccc1OS(=O)(=O)c1ccc(C)cc1	inconclusive: 3.29 µM [inhibitor, single point]
CCc1ccc(NC(=O)C(=O)NCCN2CCN(C(=O)c3ccco3)CC2)cc1	inconclusive: 1.31 µM [inhibitor, full curve, poor fit]
COC(=O)c1ccccc1S(=O)(=O)N1CCCC(c2nc3c(nnn3Cc3ccc(C)cc3)c(=O)[nH]2)C1 (configuration not stated)	inconclusive: 9.28 µM [inhibitor, partial curve, poor fit]
COc1ccc(C(=O)OC2CC3CCC(C2)[N+]3(C)[O-])cc1OC (configuration not stated)	inconclusive: 2.08 µM [inhibitor, partial curve, poor fit]

Source: PubChem BioAssay AID504834 (National Center for Advancing Translational Sciences (NCATS), 2011)
